# Reference: PubChem BioAssay AID504375 (National Center for Advancing Translational Sciences (NCATS), 2011)
# Chains of the proteins cited; added tags and fusions are not shown.
# UniProt Q01196, whole entry, looked up: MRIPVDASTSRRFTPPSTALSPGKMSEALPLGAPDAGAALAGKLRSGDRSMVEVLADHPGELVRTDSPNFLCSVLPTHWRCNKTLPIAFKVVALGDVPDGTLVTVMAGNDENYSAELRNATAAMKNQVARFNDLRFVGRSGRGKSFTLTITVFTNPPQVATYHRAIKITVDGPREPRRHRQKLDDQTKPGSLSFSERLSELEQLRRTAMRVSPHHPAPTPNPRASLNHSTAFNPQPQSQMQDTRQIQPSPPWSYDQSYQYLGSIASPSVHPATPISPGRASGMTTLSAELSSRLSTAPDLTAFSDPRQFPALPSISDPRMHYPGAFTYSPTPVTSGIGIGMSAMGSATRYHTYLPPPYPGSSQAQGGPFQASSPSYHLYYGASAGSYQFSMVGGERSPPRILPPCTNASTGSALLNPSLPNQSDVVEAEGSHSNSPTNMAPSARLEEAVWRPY
# UniProt Q13951, whole entry, looked up: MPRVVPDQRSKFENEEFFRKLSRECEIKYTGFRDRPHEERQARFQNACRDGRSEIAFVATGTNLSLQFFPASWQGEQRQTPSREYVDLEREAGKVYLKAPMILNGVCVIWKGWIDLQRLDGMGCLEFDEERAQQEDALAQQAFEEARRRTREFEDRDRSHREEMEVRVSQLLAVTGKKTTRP
# The whole screen tested about 1,600 compounds, of which about 25 (2%) were called active. Inconclusive results (about 7%) are left out. Calls come from the whole dose curve; as a rule, active = well fitted inhibition curve with a large enough effect; inconclusive = small, poorly fitted or top-dose-only effect, or effect the other way; inactive = no such curve, though single readings can be large or run the other way. The list shows a part of the results.
# Biological target: Runt-related transcription factor 1 (Homo sapiens) + Core-binding factor subunit beta (Homo sapiens) (UniProt Q01196+Q13951)
# Test: qHTS Assay for Compounds Blocking the Interaction Between CBF-beta and RUNX1 for the Treatment of Acute Myeloid Leukemia: Hit Validation with Orthogonal Assay
# Conditions: CBFbeta-RUNX1 binding orthogonal assay, biochemical; series mostly up to 41 µM; activity change, negative = inhibition: at the top concentration
# Summary of the method: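 Compound was incubated for 30 min with biotin-RUNX1 plus His6-CBF-beta at 30 nM per protein. Binding was then detected by TR-FRET between terbium anti-His antibody and 5 nM streptavidin-XL665, read after 90 min, in the same buffer as the AlphaScreen primary assay.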
# % is set by controls: 0 for no effect and ±100 for the full control effect; potency is the fitted concentration of half-maximal effect.
SMILES,"activity change, negative = inhibition",Potency
O=C1c2cccc(Sc3ccccc3)c2C(=O)c2c(Sc3ccccc3)cccc21,inactive: 10.4%,
Cn1ccc(=Nc2ccc(NC(=O)c3ccc(N=c4ccn(C)c5ccc([N+](=O)[O-])cc45)cc3)cc2)cc1,inactive: 25.6%,
C/C(Cc1ccccc1)=N\NC(=O)CNC(=O)Cc1ccc(Cl)cc1,inactive: 4%,
O=C(Nc1ccccc1)NC1CCCCNC1=O (centres undefined),inactive: 6.14%,
c1ccc2sc(SCSc3nc4ccccc4s3)nc2c1,inactive: -1.49%,
CC(C)C(=O)Nc1c(-c2ccccc2)c(=O)c2ccccc2n1C,inactive: 7.32%,
CCOC(=O)CCCC(=O)N1CCOCCOCCOCC1,inactive: -2.41%,
CN(C)S(=O)(=O)c1ccc(Cl)c(NC(=O)CN2CCN(Cc3ccc4c(c3)OCO4)CC2)c1,inactive: 7.92%,
C/C(=N\O)c1c(O)cc(-c2ccccc2)n(-c2ccccc2)c1=O,inactive: 0.428%,
COc1ccc(NS(=O)(=O)c2ccc3c(c2)CCO3)cc1,inactive: -6.74%,
CCOC(=O)c1nnsc1-c1ccc(-c2snnc2C(=O)OCC)cc1,inactive: 1.53%,
O=C(N/N=C/c1ccco1)c1cc(C2CC2)[nH]n1,inactive: 10.7%,
C/C(=N\O)C1CC(CC(=O)O)C1(C)C (centres undefined),inactive: 5.63%,
Cc1ccc2nc(-c3ccc(N)cc3)sc2c1,inactive: 8.16%,
O=C(CSC(=S)N1CCOCC1)Nc1ncc2c(n1)CCCC2=O,inactive: 17.9%,
O=C(NC(=S)NNC(=O)c1cnccn1)c1ccc(F)cc1,inactive: 5.29% [at 82.4 µM],
Cc1cc(NC(=O)Nc2cc(Cl)ccc2C)no1,inactive: 7.84%,
COC(=O)c1cnc(N2CCOCC2)nc1C(F)(F)F,inactive: -8.14%,
CCOC(=O)c1nnn2c1nc(N1CCOCC1)c1ccccc12,inactive: -10.7%,
Cc1cccc(C)c1NC(=S)N1CCOCC1,inactive: 3.77%,
CC(C)(C)OC(=O)N1CCCN(C(=O)Nc2ccccc2)CC1,inactive: 9%,
COc1cccc(C2=NN(C(=O)CCCC(=O)O)C(c3cccs3)C2)c1 (centres undefined),inactive: -3.01%,
Cc1cc(NC(=O)c2ccc3c(c2)C(=O)N(CC(C)C)C3=O)no1,inactive: 12.8%,
CN(C)C=Nc1ccccc1C1C=NNC1=O (centres undefined),inactive: 29.8%,
C[C@H](NC(=O)OC(C)(C)C)C(=O)N/N=C/c1ccc2nccnc2c1,inactive: 30.6%,

# Reprinted at random: 3 compounds from above, in no set order.
SMILES,"activity change, negative = inhibition",Potency
C/C(=N\O)c1c(O)cc(-c2ccccc2)n(-c2ccccc2)c1=O,inactive: 0.428%,
CN(C)C=Nc1ccccc1C1C=NNC1=O (centres undefined),inactive: 29.8%,
Cc1cc(NC(=O)c2ccc3c(c2)C(=O)N(CC(C)C)C3=O)no1,inactive: 12.8%,

# (cont.)

SMILES,"activity change, negative = inhibition",Potency
Oc1ccccc1-c1nc(NCc2cccnc2)c2ccccc2n1,inactive: 0.159%,
O=S(=O)(Nc1ccccc1)c1ccc2c(c1)CCO2,inactive: -2.7%,
Cc1[nH]c2ccccc2c1-c1csc(NC(=O)CSCC(=O)O)n1,inactive: 12.8%,
COC(=O)c1ccc(S(=O)(=O)N(C2CCCCC2)C2CCCCC2)n1C,inactive: -14%,
Cc1cc(C)c2c(N)c(-c3nnc(SCc4ccc(Cl)cc4)n3C)sc2n1,inactive: -7.93%,
CC1SCC(=NOCc2ccccc2)CS1 (centres undefined),inactive: -11.7%,
CC(C)(C)SCCNC(=O)/C=C/c1ccccc1,inactive: 7.92%,
CN(C)/C=C1\N=C(c2cccnc2Oc2ccc(Cl)cc2)OC1=O,inactive: 27.6%,
O=C(NC(=S)Nc1ccccc1N1CCCC1)c1ccco1,inactive: 3.85%,
CCN(CCS(=O)(=O)c1ccc(Cl)cc1)C(=O)Nc1ccccc1,inactive: 4.43%,
NC(=S)N/N=C/c1ncc(C(F)(F)F)cc1Cl,inactive: 12.6%,
CN(C)c1ccc(/C=N/N2CCN(c3ccccn3)CC2)cc1,inactive: 15.1%,
COc1ccccc1C1=NOC(COC(=O)c2ccc([N+](=O)[O-])cc2)C1 (centres undefined),inactive: 54.7%,
Brc1ccc(C2=Nn3c(Cn4nnc5ccccc54)nnc3SC2)cc1,inactive: -8.99%,
Fc1ccc(-c2cc(-c3cccs3)cc(-c3ccccc3)n2)cc1,inactive: -0.905%,
CC1=Nc2ccccc2N=C(NC(=O)CSC(=S)N2CCCCC2)C1c1ccccc1 (centres undefined),inactive: -8.42%,
N#Cc1cnn(-c2ccccc2)c1NC(=O)CN1CCN(c2ccccc2)CC1,inactive: 6.88%,
CCOC(=O)c1nnn2c1nc(N1CCN(C)CC1)c1ccccc12,inactive: 4.32%,
O=C(O)/C(=C\c1cn(-c2ccccc2)nc1-c1cccnc1)NC(=O)c1ccccc1,inactive: 8.88%,
NC(Cc1ccc(O)c(O)c1)C(=O)O (centres undefined),,active: 891 nM
Cc1nnn(C23C[C@@H]4C[C@@H](CC(C(=O)N5CCN(c6ccccc6)CC5)(C4)C2)C3)n1,inactive: 2.34%,
Cc1onc(-c2ccccc2)c1C(=O)NC(=S)NNC(=O)c1ccco1,inactive: -16.1%,
O=C(Nc1ccccc1)Nc1ccc2ccccc2c1,inactive: 12.4%,
O=C(Nc1ccccc1F)Oc1cccc(OC(=O)Nc2ccccc2F)c1,inactive: 6.04%,
CCOC(=O)CNC(=O)c1cccnc1Oc1ccc(Cl)cc1,inactive: 7.14%,

SMILES,"activity change, negative = inhibition",Potency
Cc1ccccc1OCC(=O)Nc1nnc(C2CCCCC2)s1,inactive: 0.404%,
COc1cc(NC2CCCCC2O)c2nc(-c3ccc(Cl)cc3)ccc2c1 (centres undefined),inactive: 35%,
N#Cc1cnn(-c2ccccc2)c1NC(=O)CN1CCOCC1,inactive: -4.99%,
COc1ccc(CCNC(=O)C(=O)NCC2CCNCC2)cc1OC,inactive: 3.1%,
C=CCN=C1S/C(=C/c2ccc([N+](=O)[O-])cc2)C(=O)N1CC=C,inactive: 5.33%,
Cc1onc(-c2ccccc2)c1C(=O)c1ccccc1,inactive: 0.795%,
CC1CCN(C2CCN(C(=O)c3ccccc3F)CC2)CC1,inactive: 14.9%,
COc1ccc(/C=N/NC(=O)c2ccco2)cc1OCc1ccccc1,inactive: 3.95%,
COc1ccccc1NC(=O)OCC#CCOC(=O)Nc1ccccc1OC,inactive: -16.1%,
COc1cc(OC)c(OC)cc1/C=C1\Oc2cc(OS(C)(=O)=O)ccc2C1=O,inactive: 29.9%,
COC(=O)Cc1[nH]c(=S)[nH]c1C(=O)OC,inactive: -6.39%,
O=C(CSc1nnc2n1CCCN2)c1ccccc1,inactive: -10.6%,
O=C(CCl)N(CCCNC(=O)C(F)(F)F)c1ccc([N+](=O)[O-])cc1,inactive: 6.57%,
CN(C)S(=O)(=O)Nc1cccc(Br)c1,inactive: 7.51%,
CN(C)c1cc(-c2ccc(Cl)cc2Cl)oc(=O)c1Cl,inactive: 32.5%,
Cc1ccc(F)cc1NC(=O)N1c2ccccc2NC(=O)CC1C (centres undefined),inactive: 0.636%,
CC1=C(O)C(=O)OC1c1c(Cl)cccc1Cl (centres undefined),inactive: 8.99%,
COc1ccc(C2=NOC(CNC(=O)c3ccccc3Br)C2)c(OC)c1 (centres undefined),inactive: -0.477%,
O=C(Nc1ccccc1)Nc1ccc(C(F)(F)F)cn1,inactive: 2.47%,
C/C(=N\NC(=O)CCc1c(C)n[nH]c1C)c1ccc([N+](=O)[O-])cc1,inactive: 32.1%,
CCc1cc2c3c(c1)C(C)CC(C)(C)N3C(=O)/C2=C1\SC(=O)NC1=O (centres undefined),inactive: -22.1%,
Cc1cc(C(=O)NNS(=O)(=O)c2ccc(C(C)(C)C)cc2)nn1C(C)(C)C,inactive: 10.6%,
COc1ccc(CCNS(=O)(=O)c2cnc(Cl)c(Br)c2)cc1OC,inactive: -3.52%,
c1ccc(-c2ccc(C3=Nn4c(nnc4-c4cccs4)SC3)cc2)cc1,inactive: 2.54%,
